Patent US8501992B2, “Hydroxyphenyl sulfonamides as antiapoptotic bcl inhibitors” (Bristol-Myers Squibb Company, priority 2008, dated 2013)
Some of these results come from one statement about several compounds together.

target: T1, Bcl-b (Homo sapiens, UniProt Q9HD36); assay: Bclb/Bim fluorescence polarization assay (FPA); type: binding; conditions: BIM BH3 peptide 5 nM, Bcl-b 40 nM, Ki calculated from FPA data
T1 construct: without their C-terminal transmembrane domain; GST; made in house
T1 sequence (Q9HD36 1-182 limits assumed): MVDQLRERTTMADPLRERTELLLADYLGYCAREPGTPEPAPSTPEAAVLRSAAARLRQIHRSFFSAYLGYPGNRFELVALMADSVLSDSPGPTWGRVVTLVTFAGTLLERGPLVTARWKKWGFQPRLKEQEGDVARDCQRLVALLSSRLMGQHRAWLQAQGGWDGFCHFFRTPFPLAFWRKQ

Ki, ≤ 10 µM:
Cc1ccc(S(=O)(=O)N(Cc2ccc(F)cc2)Cc2cc(Cl)cc(CN(Cc3ccc(F)cc3)S(=O)(=O)c3cc(Cl)cc(Cl)c3O)c2)cc1 [Example 69, 3,5-dichloro-N-(3-chloro-5-((N-(4-fluorobenzyl)-4-methylphenylsulfonamido)methyl)benzyl)-N-(4-fluorobenzyl)-2-hydroxybenzenesulfonamide]
N#Cc1cccc(S(=O)(=O)N(Cc2ccc(F)cc2)Cc2cc(Cl)cc(CN(Cc3ccc(F)cc3)S(=O)(=O)c3cc(Cl)cc(Cl)c3O)c2)c1 [Example 70, 3,5-dichloro-N-(3-chloro-5-((3-cyano-N-(4-fluorobenzyl)phenylsulfonamido)methyl)benzyl)-N-(4-fluorobenzyl)-2-hydroxybenzenesulfonamide]
CC(C)CN(Cc1cc(Cl)cc(CN(CC(C)C)S(=O)(=O)c2cc(Cl)cc(Cl)c2O)c1)C(=O)c1ccc(SC(F)(F)F)cc1 [Example 71, N-(3-chloro-5-((3,5-dichloro-2-hydroxy-N-isobutylphenylsulfonamido)methyl)benzyl)-N-isobutyl-4-(trifluoromethylthio)benzamide]
CC(C)CN(Cc1cc(Cl)cc(CN(CC(C)C)S(=O)(=O)c2cc(Cl)cc(Cl)c2O)c1)C(=O)c1cccc(SC(F)(F)F)c1 [Example 72, N-(3-chloro-5-((3,5-dichloro-2-hydroxy-N-isobutylphenylsulfonamido)methyl)benzyl)-N-isobutyl-3-(trifluoromethylthio)benzamide]
CC(C)CN(Cc1cc(Cl)cc(CN(CC(C)C)S(=O)(=O)c2cc(Cl)cc(Cl)c2O)c1)C(=O)c1cccc(S(=O)(=O)C(F)(F)F)c1 [Example 73, N-(3-chloro-5-((3,5-dichloro-2-hydroxy-N-isobutylphenylsulfonamido)methyl)benzyl)-N-isobutyl-3-(trifluoromethylsulfonyl)benzamide]
CS(=O)(=O)c1cccc(CN(Cc2cc(CNS(=O)(=O)c3cccc(C#N)c3)cc(Oc3ccc(F)cc3)c2)S(=O)(=O)c2cc(Cl)cc(Cl)c2O)c1 [Example 74, 3,5-dichloro-N-(3-((3-cyanophenylsulfonamido)methyl)-5-(4-fluorophenoxy)benzyl)-2-hydroxy-N-(3-(methylsulfonyl)benzyl) benzenesulfonamide]
Cc1ccc(S(=O)(=O)NCc2cc(CN(Cc3cccc(S(C)(=O)=O)c3)S(=O)(=O)c3cc(Cl)cc(Cl)c3O)cc(Oc3ccc(F)cc3)c2)cc1 [Example 75, 3,5-dichloro-N-(3-(4-fluorophenoxy)-5-((4-methylphenylsulfonamido)methyl)benzyl)-2-hydroxy-N-(3-(methylsulfonyl)benzyl) benzenesulfonamide]
COc1cccc(C(=O)NCc2cc(CN(Cc3cccc(S(C)(=O)=O)c3)S(=O)(=O)c3cc(Cl)cc(Cl)c3O)cc(Oc3ccc(F)cc3)c2)c1F [Example 76, N-(3-((3,5-dichloro-2-hydroxy-N-(3-(methylsulfonyl)benzyl)phenylsulfonamido)methyl)-5-(4-fluorophenoxy)benzyl)-2-fluoro-3-methoxybenzamide]
CS(=O)(=O)c1cccc(CN(Cc2cc(CNC(=O)c3cccc(Oc4ccccc4)c3)cc(Oc3ccc(F)cc3)c2)S(=O)(=O)c2cc(Cl)cc(Cl)c2O)c1 [Example 77, N-(3-((3,5-dichloro-2-hydroxy-N-(3-(methylsulfonyl)benzyl)phenylsulfonamido)methyl)-5-(4-fluorophenoxy)benzyl)-3-phenoxybenzamide]
CS(=O)(=O)c1ccc(CN(Cc2cc(CNC(=O)c3cccc(Oc4ccccc4)c3)cc(Oc3ccc(F)cc3)c2)S(=O)(=O)c2cc(Cl)cc(Cl)c2O)cc1 [Example 78, N-(3-((3,5-dichloro-2-hydroxy-N-(4-(methylsulfonyl)benzyl)phenylsulfonamido)methyl)-5-(4-fluorophenoxy)benzyl)-3-phenoxybenzamide]
COc1cccc(C(=O)NCc2cc(CN(Cc3ccc(S(C)(=O)=O)cc3)S(=O)(=O)c3cc(Cl)cc(Cl)c3O)cc(Oc3ccc(F)cc3)c2)c1F [Example 79, N-(3-((3,5-dichloro-2-hydroxy-N-(4-(methylsulfonyl)benzyl)phenylsulfonamido)methyl)-5-(4-fluorophenoxy)benzyl)-2-fluoro-3-methoxybenzamide]
CS(=O)(=O)c1ccc(CN(Cc2cc(CNS(=O)(=O)c3cccc(C#N)c3)cc(Oc3ccc(F)cc3)c2)S(=O)(=O)c2cc(Cl)cc(Cl)c2O)cc1 [Example 80, 3,5-dichloro-N-(3-((3-cyanophenylsulfonamido)methyl)-5-(4-fluorophenoxy)benzyl)-2-hydroxy-N-(4-(methylsulfonyl)benzyl) benzenesulfonamide]
Cc1ccc(S(=O)(=O)NCc2cc(CN(Cc3ccc(S(C)(=O)=O)cc3)S(=O)(=O)c3cc(Cl)cc(Cl)c3O)cc(Oc3ccc(F)cc3)c2)cc1 [Example 81, 3,5-dichloro-N-(3-(4-fluorophenoxy)-5-((4-methylphenylsulfonamido)methyl)benzyl)-2-hydroxy-N-(4-(methylsulfonyl)benzyl) benzenesulfonamide]
CS(=O)(=O)c1ccc(CN(Cc2cc(CNC(=O)c3cccc(S(=O)(=O)C(F)(F)F)c3)cc(Oc3ccc(F)cc3)c2)S(=O)(=O)c2cc(Cl)cc(Cl)c2O)cc1 [Example 82, N-(3-((3,5-dichloro-2-hydroxy-N-(4-(methylsulfonyl)benzyl)phenylsulfonamido)methyl)-5-(4-fluorophenoxy)benzyl)-3-(trifluoromethyl-sulfonyl)benzamide]
CS(=O)(=O)c1ccc(CN(Cc2cc(CN(Cc3ccc(F)cc3)S(=O)(=O)c3cc(Cl)cc(Cl)c3O)cc(Oc3ccc(F)cc3)c2)C(=O)c2cccc(SC(F)(F)F)c2)cc1 [Example 83, N-(3-((3,5-dichloro-N-(4-fluorobenzyl)-2-hydroxyphenyl-sulfonamido)methyl)-5-(4-fluorophenoxy)benzyl)-N-(4-(methylsulfonyl)benzyl)-3-(trifluoromethylthio) benzamide]
CS(=O)(=O)c1ccc(CN(Cc2cc(CNS(=O)(=O)c3cc(Cl)cc(Cl)c3O)cc(Oc3ccc(F)cc3)c2)S(=O)(=O)c2cc(Cl)cc(Cl)c2O)cc1 [Example 84, 3,5-dichloro-N-(3-((3,5-dichloro-2-hydroxyphenyl-sulfonamido)methyl)-5-(4-fluorophenoxy)benzyl)-2-hydroxy-N-(4-(methylsulfonyl)benzyl)benzenesulfonamide]
CS(=O)(=O)c1ccc(CN(Cc2cc(CN(Cc3ccc(F)cc3)S(=O)(=O)c3cc(Cl)cc(Cl)c3O)cc(Oc3ccc(F)cc3)c2)C(=O)c2cccc([S+]([O-])C(F)(F)F)c2)cc1 (stereo not drawn) [Example 86, N-(3-((3,5-dichloro-N-(4-fluorobenzyl)-2-hydroxyphenyl-sulfonamido)methyl)-5-(4-fluorophenoxy)benzyl)-N-(4-(methylsulfonyl)benzyl)-3-(trifluoromethyl-sulfinyl)benzamide]
CC(C)CN(Cc1cc(CN(Cc2ccc(F)cc2)S(=O)(=O)c2cc(Cl)cc(Cl)c2O)cc(Oc2ccc(F)cc2)c1)C(=O)c1ccc(Cl)nc1 [Example 87, 6-chloro-N-(3-((3,5-dichloro-N-(4-fluorobenzyl)-2-hydroxyphenyl-sulfonamido)methyl)-5-(4-fluorophenoxy)benzyl)-N-isobutylnicotinamide]
